According to US11028078B2 (The Johns Hopkins University, priority 2011, dated 2021):
Some entries share one result that the patent states for a list of compounds. Some compounds share one range, which may span the group rather than tell each member.

Test system: HUVEC
Test: HUVEC proliferation assay ([3H]thymidine incorporation)
Assay type: cell-based, human
Method: The activity of the analogs against HUVEC proliferation, an in vitro proxy for angiogenesis inhibition (Table 3) was analyzed. […]
Pooled HUVEC (Lonza) were grown in EGM-2 bullet kit media (Lonza) and used at passage eight or lower. The proliferation assays were conducted as previously described (Nacev, B.; Low, W. K.; Huang, Z.; Su, T.; Su, Z.; Alkuraya, H.; Kasuga, D.; Sun, W.; Trager, M.; Braun, M.; Fischer, G.; Zhang, K.; Liu, J. O., Acalcineurin-independent mechanism of angiogenesis inhibition by anon-immunosuppressive Cyclosporin Aanalog. J. Pharmacol. Exp. Ther. 2011, DOI:10.1124/jpet.111.18085).

| Compound | decrease in anti-proliferative activity against HUVEC compared to itraconazole |
| --- | --- |
| CCC(C)n1ncn(-c2ccc(N3CCN(c4ccc(OC[C@@H]5CO[C@@](CN6CCOCC6)(c6ccc(Cl)cc6Cl)O5)cc4)CC3)cc2)c1=O (stereo partly drawn) [Compound 263, 1-(sec-butyl)-4-(4-(4-(4-(((2S,4R)-2-(2,4-dichlorophenyl)-2-(morpholinomethyl)-1,3-dioxolan-4-yl)methoxy)phenyl)piperazin-1-yl)phenyl)-1H-1,2,4-triazol-5(4H)-one] | 2-9 fold |
| CCC(C)n1ncn(-c2ccc(N3CCN(c4ccc(OC[C@@H]5CO[C@@](CN(C)C)(c6ccc(Cl)cc6Cl)O5)cc4)CC3)cc2)c1=O (stereo partly drawn) [Compound 264, 1-(sec-butyl)-4-(4-(4-(4-(((2S,4R)-2-(2,4-dichlorophenyl)-2-((dimethylamino)methyl)-1,3-dioxolan-4-yl)methoxy)phenyl)piperazin-1-yl)phenyl)-1H-1,2,4-triazol-5(4H)-one] | 2-9 fold |
| CCC(C)n1ncn(-c2ccc(N3CCN(c4ccc(OC[C@@H]5CO[C@@](CN6CCN(C)CC6)(c6ccc(Cl)cc6Cl)O5)cc4)CC3)cc2)c1=O (stereo partly drawn) [Compound 265, 1-(sec-butyl)-4-(4-(4-(4-(((2S,4R)-2-(2,4-dichlorophenyl)-2-((4-methylpiperazin-1-yl)methyl)-1,3-dioxolan-4-yl)methoxy)phenyl)piperazin-1-yl)phenyl)-1H-1,2,4-triazol-5(4H)-one] | 2-9 fold |
| CCC(C)n1ncn(-c2ccc(N3CCN(c4ccc(OC[C@@H]5CO[C@@](CN6CCNCC6)(c6ccc(Cl)cc6Cl)O5)cc4)CC3)cc2)c1=O (stereo partly drawn) [Compound 266, 1-(sec-butyl)-4-(4-(4-(4-(((2S,4R)-2-(2,4-dichlorophenyl)-2-(piperazin-1-ylmethyl)-1,3-dioxolan-4-yl)methoxy)phenyl)piperazin-1-yl)phenyl)-1H-1,2,4-triazol-5(4H)-one] | 2-9 fold |
